## Screening data

Data taken from PubChem BioAssay AID1159506, deposited by NCATS (2015).

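Genome-wide siRNA knockdown in TC32 Ewing sarcoma cells, comparing luciferase light from an NR0B1-promoter reporter with a CMV-promoter reporter 48 hours after transfection. Each siRNA was applied at 20 nM. A z-score of the log NR0B1-over-CMV signal, less the median of siRNAs with the same seed; more negative means a stronger specific loss of the NR0B1 reporter.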

This is part of the screen; most of the strongest results are not listed here. Sequences are the guide (antisense) strand, without overhang.

| Sequence | target gene | seed-corrected z-score |
|---|---|---|
| `AUAGCGACUACAGUCCUUG` | KIAA2022 | -0.2764 |
| `AUCACUAACACCUUCUUGC` | LGALSL | 0.9547 |
| `UACACGGAGACAGCCUUCU` | C9orf116 | 0.1267 |
| `AAGAAGAUCUGACCCAUGC` | OR4D2 | 0.1986 |
| `UCUGAAAGUGUUUAUAUUC` | WIPF2 | 0.3258 |
| `UGAAGGAACACCUAUGUCC` | TMEM177 | 0.1323 |
| `ACAGCAUUCACGACAAUGA` | CHRNG | 0.5595 |
| `UAUGCAGUAAACAUAGACU` | DEFB123 | 0.6323 |
| `UAGAUGACUAGGAACACGA` | TCIRG1 | -0.4869 |
| `UGGGUAUCGACAGUCGAUG` | CDC25A | -0.1264 |
| `UUAAUGGAGACCGAGAGAG` | EPB41L3 | -0.2135 |
| `UUAUAGGUAGCUGAGAACC` | SCAF11 | -0.5147 |
| `UUCUAUCCCGGCGAGAUCU` | NKD1 | -0.3877 |
| `AAUCUGAACCUCCAGGCUU` | ARPP19 | 0.8303 |
| `UAUAUUCUCAAUUUGCUUG` | GBX2 | 1.094 |
| `UAAGUUUUGCCCAGAACUC` | GADL1 | 0.508 |
| `UCAUCAGUCAGAAUCUUUG` | GPATCH4 | -0.1451 |
| `AUAGAUACAGCUUUUCCGC` | POLR3E | 0.2014 |
| `AAAGUAAGACGAGGAGUUC` | CDK11A | -0.002584 |
| `AUCGCUUCAAUUCCUGACU` | LYG2 | 1.18 |
| `UAAGCUCCUCAAAACCUGG` | FNTB | 0.2022 |
| `UUAUCGUCCAACGACAGCC` | CAMTA1 | 0.4608 |
| `UCUUUUAGCAGGUCUGAGG` | PENK | -0.2884 |
| `UCAACUAUAAAGCCUCGCC` | ZNF589 | -0.01772 |
| `UCAUAGUUAGGAAUCCACC` | GPR34 | 0.6987 |
| `UUGGUAAUAUCUGAAAGCU` | ZNF709 | -1.042 |
| `UUUCGUGUAAUCCUUGAGG` | TSEN2 | 1.139 |
| `UCUGUCCACAUUGUAUGUC` | ALPI | -1.565 |
| `UGGAAGUCAAGAUUGGUGC` | RPSAP12 | 0.5009 |
| `UUGGAGUUCAUGGUGAGAC` | P3H1 | -1.462 |
| `UACGAAACAAUAGAUAUUG` | OPN3 | 0.04711 |
| `ACAAGGUCAACUUCCACUC` | RNF215 | -0.3271 |
| `UUAAUGAAUAUGUUGCCUA` | PABPC1 | -0.9652 |
| `AACCUGUAAAGAAUGUUCU` | SEC22C | 1.329 |
| `UGUGGAGUAGAGGAUCUGC` | TRMT61A | -0.003759 |
| `AUACUGAUGAUGUAGGUUC` | GJA1 | 0.2806 |
| `UCACUUCGCAUGUAUUAGG` | HS3ST5 | -0.09522 |
| `UAAUUACACAGUGAGCUUU` | SCGB1A1 | -0.07759 |
| `UUAGUCUUAGAUGCAGACC` | SLCO1B7 | -0.2673 |
| `UUAGUAAGUUUAGACAUGC` | SSX2IP | -1.835 |
| `UGUGGAGUCACUGCUGAUG` | DPH7 | -1.889 |
| `UGAAAAGGAAUGAACACGG` | ZFP41 | -0.9167 |
| `UAGAGGAUACCGUCGAAGC` | KCNA5 | 1.938 |
| `UCCAUAUAAUCACUAAUCC` | NPAS3 | 0.5066 |
| `AUAGCGAAUAUUAACAGUG` | SERAC1 | -0.1857 |
| `UCUACGUCAAAAGCCUUGC` | MAP3K6 | -0.07556 |
| `ACAGUUUUGAUAACUUGGU` | LOC642262 | 0.243 |
| `UGCACUCUCAGCAAACUCC` | GYPC | 0.02322 |

Repeated from the top, 5 entries:

{"sequence": "AUAGCGACUACAGUCCUUG", "target gene": "KIAA2022", "seed-corrected z-score": "-0.2764"}
{"sequence": "AUCACUAACACCUUCUUGC", "target gene": "LGALSL", "seed-corrected z-score": "0.9547"}
{"sequence": "UACACGGAGACAGCCUUCU", "target gene": "C9orf116", "seed-corrected z-score": "0.1267"}
{"sequence": "AAGAAGAUCUGACCCAUGC", "target gene": "OR4D2", "seed-corrected z-score": "0.1986"}
{"sequence": "UCUGAAAGUGUUUAUAUUC", "target gene": "WIPF2", "seed-corrected z-score": "0.3258"}